# Measurements as given in patent US20110202000A1.
# Sequences of proteins named here, by UniProt entry; tags and fusion partners are left off. Residues count along the entry.
# UniProt P05067, residues 672-713: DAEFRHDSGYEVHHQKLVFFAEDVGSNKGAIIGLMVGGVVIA
# No constants are given. Whether binding was seen depends on the method and setting. Some results given as binding are weak or reduced against the parent protein; the word gives no strength.
# Tests used:
# [1] = biological target: amyloid plaques in the brain (temporal cortex) of a human with Alzheimer's disease (human) (UniProt P05067); assay: immunohistochemistry on brain sections (figure legend)
# [2] = biological target: amyloid plaques in the brain (temporal cortex) of a human with Alzheimer's disease (human) (UniProt P05067); assay: immunohistochemistry on brain sections, MDT-2007 at 1:10K
binder,measurement,setting,value
"MDT-2007 (composite human antibody sequence variant VH4/VK2) (antibody, V domains shown) VH: QVQLVQSGAEVKKPGASVKVSCTASGFNIKDTYIHWVRQARGQRLEWIGRFDPVNVNTRYDSRFRGRVTITSDASTNTAYMELSSLRSEDTAVYYCSRSYYNGRRRFTYWGQGTLVTVSS VL: DIVMTQSPSSLTASVGDRVTITCKASQSLLSSGNQKNYLTWYQQKPGQPPKLLIYWASIRESGVPDRFTGSGSGTFFTLTISSLQAEDVAVYYCQNDYNYPFTFGQGTKLEIK",binding,[1],binds
same,binding,[2],binds
